PubChem BioAssay AID1224830, NIAID – 2016
This is one part, drawn at random, of about 18,000 deposited reagents. About 2,900 of them (16%) count as active. 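Calls are made per well; low scores hint the gene aids the LPS response, high scores that it dampens it.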 Repeated entries: four replicate wells of each siRNA pool.

- Assay: 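Regulators of TLR4 signalling towards TNF-alpha in macrophage-like cells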 (primary screen)
- System: human THP-1 monocytic leukaemia cells, TNF dual-luciferase reporter clone, PMA-differentiated to macrophage-like cells
- Reagent: siRNA pool against human genes, 50 nM
- Duration: LPS for 4 h, given about 3 days after siRNA transfection
- Treatment: bacterial LPS (TLR4 ligand), 10 ng/ml
- Measured: 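Ratio of firefly to renilla light, scaled to the plate median and expressed as a robust z-score per replicate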
- Reading the numbers: TNF reporter robust z-score: higher = stronger TNF reporter response to LPS
- Call rule: 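a well is active when its z-score exceeds 2.8 or falls below -1.5; control wells carry no call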

Gene,TNF reporter robust z-score,call
NUDT12,-0.65,inactive
NUDT12,-0.46,inactive
NUDT12,-1.41,inactive
NUDT12,-0.39,inactive
TRIM54,-0.86,inactive
TRIM54,-0.75,inactive
TRIM54,0,inactive
TRIM54,-1.8,active
MRPL23,-0.7,inactive
MRPL23,-0.53,inactive
MRPL23,-0.82,inactive
MRPL23,-0.8,inactive
VN1R2,-0.66,inactive
VN1R2,-0.28,inactive
VN1R2,-0.72,inactive
VN1R2,0.78,inactive
TNK2,-1.01,inactive
TNK2,2.89,active
TNK2,0.81,inactive
TNK2,1.38,inactive
DUSP9,2.29,inactive
DUSP9,-0.46,inactive
DUSP9,-1.07,inactive
DUSP9,-0.57,inactive
CLGN,-0.33,inactive
CLGN,-1.19,inactive
CLGN,1.19,inactive
CLGN,0.98,inactive
TNFRSF12A,0.3,inactive
TNFRSF12A,0.07,inactive
TNFRSF12A,0.24,inactive
TNFRSF12A,0.32,inactive
LPAR1,-1.14,inactive
LPAR1,0.13,inactive
LPAR1,-0.92,inactive
LPAR1,0.68,inactive
DAGLA,1.59,inactive
DAGLA,0.79,inactive
DAGLA,-0.46,inactive
DAGLA,0.47,inactive
CMTR1,-0.7,inactive
CMTR1,1.09,inactive
CMTR1,-0.03,inactive
CMTR1,-0.74,inactive
PLA2G12A,-0.41,inactive
PLA2G12A,-0.34,inactive
PLA2G12A,-0.82,inactive
PLA2G12A,1.34,inactive
PGBD5,2.07,inactive
PGBD5,-0.06,inactive
PGBD5,-0.09,inactive
PGBD5,-0.02,inactive

In a second layout: 9 of the entries above
| Gene | TNF reporter robust z-score | call |
| --- | --- | --- |
| VN1R2 | -0.72 | inactive |
| VN1R2 | 0.78 | inactive |
| TNK2 | -1.01 | inactive |
| TNK2 | 2.89 | active |
| TNK2 | 0.81 | inactive |
| TNK2 | 1.38 | inactive |
| DUSP9 | 2.29 | inactive |
| DUSP9 | -0.46 | inactive |
| DUSP9 | -1.07 | inactive |

Continued.
Gene,TNF reporter robust z-score,call
SLC35D4,3.83,active
SLC35D4,2.09,inactive
SLC35D4,4.49,active
SLC35D4,2.48,inactive
PPIB,2.47,inactive
PPIB,1.33,inactive
PPIB,1.78,inactive
PPIB,2.49,inactive
PSG5,-0.7,inactive
PSG5,0.5,inactive
PSG5,-0.07,inactive
PSG5,-0.03,inactive
SNRNP70,0.65,inactive
SNRNP70,3.27,active
SNRNP70,3.15,active
SNRNP70,2.63,inactive
AP3S2,0.25,inactive
AP3S2,0.81,inactive
AP3S2,0.07,inactive
AP3S2,0.21,inactive
ANKRD20A5P,0.62,inactive
ANKRD20A5P,1.15,inactive
ANKRD20A5P,1.43,inactive
ANKRD20A5P,3.05,active
C19orf48P,2.05,inactive
C19orf48P,2.06,inactive
C19orf48P,3.05,active
C19orf48P,2.01,inactive
MTUS1,-0.79,inactive
MTUS1,-1.11,inactive
MTUS1,-0.67,inactive
MTUS1,-0.25,inactive
MAPDA,0.74,inactive
MAPDA,0.53,inactive
MAPDA,1.69,inactive
MAPDA,1.1,inactive
ZMAT5,-0.24,inactive
ZMAT5,-0.64,inactive
ZMAT5,-0.45,inactive
ZMAT5,0.85,inactive
ZNF239,-0.84,inactive
ZNF239,-0.74,inactive
ZNF239,0.65,inactive
ZNF239,0.45,inactive
PRAMEF1,-0.86,inactive
PRAMEF1,-0.44,inactive
PRAMEF1,-1.14,inactive
PRAMEF1,0.29,inactive
UROC1,-0.75,inactive
UROC1,-0.6,inactive
UROC1,-0.54,inactive
UROC1,-0.32,inactive
RSKR,-1.51,active
RSKR,-1.61,active
RSKR,-1.05,inactive
EIF1AY,2.03,inactive
EIF1AY,-2.53,active
EIF1AY,1.24,inactive
EIF1AY,-0.41,inactive
PLIN1,0.83,inactive
PLIN1,-0.09,inactive
PLIN1,0.06,inactive
PLIN1,-0.15,inactive
CTCF,0.17,inactive
CTCF,1.26,inactive
CTCF,0.46,inactive
CTCF,2.37,inactive
LRP12,1.32,inactive
LRP12,0.83,inactive
LRP12,-0.58,inactive
LRP12,-0.68,inactive
CAMK2G,0.12,inactive
CAMK2G,1.62,inactive
CAMK2G,0.52,inactive
CAMK2G,1.75,inactive
PMAIP1,-1.64,active
PMAIP1,-1.45,inactive
PMAIP1,-0.79,inactive
PMAIP1,-1.61,active
MFSD11,0,inactive
MFSD11,0.32,inactive
MFSD11,-0.05,inactive
MFSD11,2.3,inactive
PDIA2,-0.23,inactive
PDIA2,0.68,inactive
PDIA2,0.28,inactive
PDIA2,0.06,inactive
PI4KB,-0.27,inactive
PI4KB,-0.54,inactive
PI4KB,-1.21,inactive
PI4KB,-0.36,inactive
